Measured values from publication PMC4256660.
These are yes or no findings as the source states them, for the method shown. In cells and extracts the contact can be indirect. A result given as binding can be weak or reduced; the word gives no strength. Where a sequence is shown, tags or fusion partners need not be part of it.

The chains behind the UniProt entries cited, without tags or fusion partners. Where a name states a change or a piece, a line headed by the entry shows the natural chain unless it says otherwise.
UniProt P40763: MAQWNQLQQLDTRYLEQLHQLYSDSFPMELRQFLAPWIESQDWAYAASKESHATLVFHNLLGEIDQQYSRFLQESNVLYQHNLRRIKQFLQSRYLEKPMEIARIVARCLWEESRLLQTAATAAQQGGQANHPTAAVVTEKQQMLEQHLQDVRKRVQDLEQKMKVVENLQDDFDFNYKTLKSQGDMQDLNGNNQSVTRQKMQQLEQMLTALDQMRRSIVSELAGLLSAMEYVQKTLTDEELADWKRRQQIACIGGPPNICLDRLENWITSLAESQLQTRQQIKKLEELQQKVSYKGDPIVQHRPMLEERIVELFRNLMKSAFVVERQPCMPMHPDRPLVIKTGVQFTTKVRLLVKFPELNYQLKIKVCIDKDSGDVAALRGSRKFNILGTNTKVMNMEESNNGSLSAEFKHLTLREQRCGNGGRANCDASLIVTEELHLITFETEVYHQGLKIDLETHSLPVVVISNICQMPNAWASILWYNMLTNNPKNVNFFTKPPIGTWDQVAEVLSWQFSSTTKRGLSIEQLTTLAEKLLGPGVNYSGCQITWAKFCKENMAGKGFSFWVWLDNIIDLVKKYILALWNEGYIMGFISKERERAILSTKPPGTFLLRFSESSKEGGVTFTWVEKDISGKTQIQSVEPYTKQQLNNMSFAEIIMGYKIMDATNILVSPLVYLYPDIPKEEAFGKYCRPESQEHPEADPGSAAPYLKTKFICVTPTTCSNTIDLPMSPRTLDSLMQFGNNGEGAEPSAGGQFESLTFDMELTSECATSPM

Molecular target: T1, INPP5F-V5, co-transfected in 293T cells (UniProt Q9Y2H2)
T1 sequence: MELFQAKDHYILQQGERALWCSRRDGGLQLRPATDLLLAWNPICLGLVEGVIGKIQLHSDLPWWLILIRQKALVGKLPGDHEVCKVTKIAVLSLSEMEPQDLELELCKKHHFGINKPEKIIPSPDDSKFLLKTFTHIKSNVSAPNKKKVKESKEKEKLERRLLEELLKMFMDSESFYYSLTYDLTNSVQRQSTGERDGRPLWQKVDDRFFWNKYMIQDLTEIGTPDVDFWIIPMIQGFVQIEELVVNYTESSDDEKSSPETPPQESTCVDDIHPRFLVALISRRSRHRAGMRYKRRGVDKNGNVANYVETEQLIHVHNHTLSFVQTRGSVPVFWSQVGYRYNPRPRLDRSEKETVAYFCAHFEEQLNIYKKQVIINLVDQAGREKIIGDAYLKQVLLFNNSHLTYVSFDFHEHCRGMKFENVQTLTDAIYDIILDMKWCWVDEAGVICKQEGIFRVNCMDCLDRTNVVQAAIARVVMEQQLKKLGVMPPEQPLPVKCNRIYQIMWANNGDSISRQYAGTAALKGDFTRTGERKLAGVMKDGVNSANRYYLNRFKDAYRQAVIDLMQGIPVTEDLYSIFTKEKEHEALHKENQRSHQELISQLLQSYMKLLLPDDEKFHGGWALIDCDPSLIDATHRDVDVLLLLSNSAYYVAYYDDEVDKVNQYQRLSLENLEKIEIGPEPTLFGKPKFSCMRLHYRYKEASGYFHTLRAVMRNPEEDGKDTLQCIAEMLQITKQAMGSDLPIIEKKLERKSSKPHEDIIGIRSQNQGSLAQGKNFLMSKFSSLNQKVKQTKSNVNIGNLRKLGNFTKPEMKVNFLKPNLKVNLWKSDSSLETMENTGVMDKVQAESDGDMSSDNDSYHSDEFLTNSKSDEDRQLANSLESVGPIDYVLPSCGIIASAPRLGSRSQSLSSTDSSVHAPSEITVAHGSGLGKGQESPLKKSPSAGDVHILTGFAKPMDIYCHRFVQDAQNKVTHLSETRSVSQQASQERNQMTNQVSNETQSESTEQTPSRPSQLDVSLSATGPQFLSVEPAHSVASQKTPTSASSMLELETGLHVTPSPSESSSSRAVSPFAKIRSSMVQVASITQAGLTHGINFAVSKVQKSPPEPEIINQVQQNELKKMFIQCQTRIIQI
Assay: co-IP; 293T cells co-transfected with INPP5F-V5 and GFP-tagged STAT3 constructs; IP with anti-V5, immunoblot with anti-GFP; M2 lysis buffer, Dynabeads Protein G

binding	Substance
binds	N-terminal domain deleted STAT3 (131-End), GFP-tagged (from UniProt P40763) (domain or fragment)
binds	full-length STAT3 (GFP-tagged) of the deletion series (from UniProt P40763)
